Results deposited as PubChem BioAssay AID602196 (INSERM, 2012).
This is a random part of about 23,000 reagents. In the full data, 455 (2%) were called active. 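Active includes both protection and sensitisation; some change values fall well beyond the stated -50 to +50 range.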 Not all columns of the deposit are shown. Not given: the amount of reagent.

Aim: 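Genes whose knock-down alters cisplatin killing of lung cancer cells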
Cell system: human A549 lung cancer cells
Knock-down reagent: siRNA pair against human genes
Time to read-out: 48 h transfection before cisplatin; time from cisplatin to read-out not stated
Challenge: cisplatin at a dose killing half of control-siRNA cells; exact dose and duration not given
Measurement: 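Cisplatin cell death as a shift from the 50% death seen with control siRNA; siRNAs toxic or growth-blocking alone scored 0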
Direction: two-siRNA summed score (-2 to +2): higher = both siRNAs protect from cisplatin killing; -2 means both sensitise
Call rule: 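siRNAs harmful alone (LDH or WST-1) get 0; others get +1 for less and -1 for more cisplatin killing; genes are active when the two siRNAs give the same sign, summing to ±2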
Meaning of the calls: active = both siRNAs shift cisplatin killing the same way; inactive = no consistent shift, or siRNA harmful alone

gene | two-siRNA summed score (-2 to +2) | call
PCDHGA7 (GeneID 56108) | 0 | inactive
APEH (GeneID 327) | -1 | inactive
RRS1 (GeneID 23212) | 1 | inactive
RTL8C (GeneID 8933) | 0 | inactive
LSAMP (GeneID 4045) | 0 | inactive
KRT82 (GeneID 3888) | 0 | inactive
GTPBP4 (GeneID 23560) | 0 | inactive
LINC00115 (GeneID 79854) | 0 | inactive
CLCN5 (GeneID 1184) | 0 | inactive
TSNARE1 (GeneID 203062) | 0 | inactive
TEKT4 (GeneID 150483) | 0 | inactive
RPL17 (GeneID 6139) | 0 | inactive
ANXA7 (GeneID 310) | 0 | inactive
LOC196996 | 0 | inactive
SSTR5 (GeneID 6755) | 1 | inactive
SLCO4C1 (GeneID 353189) | 0 | inactive
HSD11B1L (GeneID 374875) | 0 | inactive
RASEF (GeneID 158158) | 0 | inactive
FBXO15 (GeneID 201456) | 0 | inactive
FAM110A (GeneID 83541) | 1 | inactive
ZMYM4 (GeneID 9202) | -1 | inactive
DNAH1 (GeneID 25981) | 0 | inactive
ESYT2 (GeneID 57488) | 0 | inactive
POM121L9P (GeneID 29774) | 0 | inactive
LOC285588 | 2 | active
LOC347381 (GeneID 347381) | 0 | inactive
CARD18 (GeneID 59082) | 0 | inactive
OR6C74 (GeneID 254783) | 0 | inactive
OR7C1 (GeneID 26664) | 0 | inactive
LOC343578 | 0 | inactive
OR1B1 (GeneID 347169) | 1 | inactive
AOC2 (GeneID 314) | 1 | inactive
JPH3 (GeneID 57338) | -1 | inactive
HMGCS1P1 (GeneID 128136) | 0 | inactive
STPG4 (GeneID 285051) | 1 | inactive
LOC440895 (GeneID 440895) | 0 | inactive
GGT2P (GeneID 728441) | 1 | inactive
LOC441031 | 1 | inactive
WIPF2 (GeneID 147179) | 0 | inactive
DNER (GeneID 92737) | 2 | active
PHF21B (GeneID 112885) | 0 | inactive
RAP1GDS1 (GeneID 5910) | -1 | inactive
FGF7 (GeneID 2252) | 0 | inactive
RPL10L (GeneID 140801) | 0 | inactive
LCE2B (GeneID 26239) | -1 | inactive
STAB2 (GeneID 55576) | -1 | inactive
ELF2 (GeneID 1998) | 0 | inactive
TP53I3 (GeneID 9540) | 0 | inactive
TTR (GeneID 7276) | 0 | inactive
SMARCA2 (GeneID 6595) | 0 | inactive
LYVE1 (GeneID 10894) | -1 | inactive
LOC390680 | 0 | inactive
LOC389163 | 0 | inactive
LOC441135 | 1 | inactive
MGC16597 | 0 | inactive
THAP12 (GeneID 5612) | -1 | inactive
WFDC10A (GeneID 140832) | 1 | inactive

Entries above marked active (2):
gene | two-siRNA summed score (-2 to +2) | call
LOC285588 | 2 | active
DNER (GeneID 92737) | 2 | active
